Data taken from ChEMBL document CHEMBL5303573, “Mapping human microbiome drug metabolism by gut bacteria and their genes” (Nature, 2019).

Test: The drug is tested on Escherichia coli strain: BW25113 for biotransformation. The drug concentrations were measured before and after a 12-h incubation by liquid-chromatography-coupled mass spectrometry (LC–MS)
Details: 2 µM

Nc1nc2ccc(OC(F)(F)F)cc2s1 [RILUZOLE]
Bacterial Biotransformation: Compound NOT metabolized
